Test results as given in US20160200831A1.
Results are given in words; binding and its absence hold for the method and conditions named. Some results given as binding are weak or reduced against the parent protein; the word gives no strength.

What was measured:
[1] = molecular target: cynomolgus PAI-1 (cynomolgus monkey (Macaca fascicularis)); test: X-ray crystal structure of the complex
[2] = molecular target: human PAI-1 stabilized in active conformation (N150H, K154T, Q319L, M354I) (human) (UniProt P05121); test: X-ray crystal structure of the complex
human PAI-1 (human) [3] = molecular target: human PAI-1 (human) (UniProt P05121); test: preparative size exclusion chromatography of the Fab/PAI-1 mixture with SDS-PAGE inset; the sheet title reads 'His A44 Fab latent Pai1 SEC', the legend says human wt PAI-1
[4] = molecular target: glycosylated human PAI-1 (active form) (human) (UniProt P05121); test: SPR, Biacore 2000, single-cycle kinetics, antibody captured on anti-Fc, glycosylated human PAI-1 injected five times
[5] = molecular target: glycosylated human PAI-1 (active form) (human) (UniProt P05121); test: ELISA, hybridoma supernatant
human PAI-1 (human) [6] = molecular target: human PAI-1 (human) (UniProt P05121); test: Biacore, hybridoma supernatant
human PAI-1 (human) [7] = molecular target: human PAI-1 (human) (UniProt P05121); test: Biacore competition; analyte antibody on PAI-1 captured by immobilized A71 (competitor)
human PAI-1 (human) [8] = molecular target: human PAI-1 (human) (UniProt P05121); test: Biacore competition; analyte antibody on PAI-1 captured by immobilized A75 (competitor)
human PAI-1 (human) [9] = molecular target: human PAI-1 (human) (UniProt P05121); test: Biacore competition; analyte antibody on PAI-1 captured by immobilized C26 (competitor)
human PAI-1 (human) [10] = molecular target: human PAI-1 (human) (UniProt P05121); test: Biacore competition; analyte antibody on PAI-1 captured by immobilized C45 (competitor)
human PAI-1 (human) [11] = molecular target: human PAI-1 (human) (UniProt P05121); test: Biacore competition; analyte antibody on PAI-1 captured by immobilized E21 (competitor)
human PAI-1 (human) [12] = molecular target: human PAI-1 (human) (UniProt P05121); test: Biacore competition; analyte antibody on PAI-1 captured by immobilized 33B8 (competitor)
human PAI-1 (human) [13] = molecular target: human PAI-1 (human) (UniProt P05121); test: Biacore competition; analyte antibody on PAI-1 captured by immobilized 33H1 (competitor)
human PAI-1 (human) [14] = molecular target: human PAI-1 (human) (UniProt P05121); test: Biacore competition; analyte antibody on PAI-1 captured by immobilized B109 (competitor)
[15] = molecular target: cynomolgus PAI-1 (cynomolgus monkey (Macaca fascicularis)); test: HDX MS

Measured: binding

B1: Fab A44V11 (Fab, V domains shown)
VH: QMTLKESGPTLVKPTQTLSLTCSVSGDSMTNGYWNWIRQFPGKALEYMGYITYSGSTYYNPSLKGRITITRDTSKNQYYLTLSSVTTVDTATYYCARWHYGSPYYFDYWGQGTTLTVSS
VL: DIKMTQSPSSLSASVGDRVTITCKASQDINSYLSWLQQKPGKSPKTLIYRAQRSVEGVPSRFSGSGSGQDYSLTISSLQPEDLGIYYCLQYDEFPPTFGGGTKLEIK
binds: [1] | [2] | human PAI-1 (human) [3]

B2: APG (antibody, V domains shown)
VH: QVKLQESGPELVKPGASVKISCKASGYSFTDYNMNWVKQSKGKSLEWIGIIHPNSGTTTYNQKFKGKATLTVDQSSSTAYLQLNSLTSEDSAVYYCARSKLRFFDYWGQGTTVTVSS
VL: DIKLTQSPSSMYASLGERVTITCKASQDIYSYLSWFQQKPGKSPKTLIYRANRLIDGVPSRFSGSGSGQDYSLTISSLEYEHMGIYYCLQYDEFPFTFGSGTKLEIK
binds: [4]

B3: E16 (antibody, mouse IgG1, V domains shown)
VH: EVKLVESGGGLVKPGGSLKLSCAASGFTFSNYGMSWVRQTPEKGLGWVASLRTGGNTYYSDSVKGRFTISRDNDRNILYLQMSSLTSEDTAVYYCARGLRHWGYFDVWGAGTTVTVSS
VL: DIVMTQSHKFMSTSVGDRVNITCKASQDVSTAVGWYQQEPGQSPKLLIYSASNRHTGVPDRFTGSGSGTDFTFTISSVQAEDLAVYYCQQHYSSPWTFGGGTKLEIK
not listed: [1] | [2] | human PAI-1 (human) [3] | [4] | [15]
binds: all other assays above

B4: APGv2 (antibody, V domains shown)
VH: QVQLVQSGSELKKPGASVKVSCKASGYSFTDYNMNWVRQAPGQGLEWIGIIHPNSGTTTYNQKFKGRAVLSVDQSVSTAYLQISSLKAEDTAVYYCARSKLRFFDYWGQGTLVTVSS
VL: DIQLTQSPSSLSASVGDRVTITCKASQDIYSYLSWFQQKPGKAPKTLIYRANRLIDGVPSRFSGSGSGQDYTFTISSLQPEDIATYYCLQYDEFPFTFGQGTKLEIK
binds: [15]
